Measurements: patent EP3912994A1

Amino acid sequences for entries named in this document (tags omitted). Residues count along the entry.
UniProt Q80YX1, residues 23-2110: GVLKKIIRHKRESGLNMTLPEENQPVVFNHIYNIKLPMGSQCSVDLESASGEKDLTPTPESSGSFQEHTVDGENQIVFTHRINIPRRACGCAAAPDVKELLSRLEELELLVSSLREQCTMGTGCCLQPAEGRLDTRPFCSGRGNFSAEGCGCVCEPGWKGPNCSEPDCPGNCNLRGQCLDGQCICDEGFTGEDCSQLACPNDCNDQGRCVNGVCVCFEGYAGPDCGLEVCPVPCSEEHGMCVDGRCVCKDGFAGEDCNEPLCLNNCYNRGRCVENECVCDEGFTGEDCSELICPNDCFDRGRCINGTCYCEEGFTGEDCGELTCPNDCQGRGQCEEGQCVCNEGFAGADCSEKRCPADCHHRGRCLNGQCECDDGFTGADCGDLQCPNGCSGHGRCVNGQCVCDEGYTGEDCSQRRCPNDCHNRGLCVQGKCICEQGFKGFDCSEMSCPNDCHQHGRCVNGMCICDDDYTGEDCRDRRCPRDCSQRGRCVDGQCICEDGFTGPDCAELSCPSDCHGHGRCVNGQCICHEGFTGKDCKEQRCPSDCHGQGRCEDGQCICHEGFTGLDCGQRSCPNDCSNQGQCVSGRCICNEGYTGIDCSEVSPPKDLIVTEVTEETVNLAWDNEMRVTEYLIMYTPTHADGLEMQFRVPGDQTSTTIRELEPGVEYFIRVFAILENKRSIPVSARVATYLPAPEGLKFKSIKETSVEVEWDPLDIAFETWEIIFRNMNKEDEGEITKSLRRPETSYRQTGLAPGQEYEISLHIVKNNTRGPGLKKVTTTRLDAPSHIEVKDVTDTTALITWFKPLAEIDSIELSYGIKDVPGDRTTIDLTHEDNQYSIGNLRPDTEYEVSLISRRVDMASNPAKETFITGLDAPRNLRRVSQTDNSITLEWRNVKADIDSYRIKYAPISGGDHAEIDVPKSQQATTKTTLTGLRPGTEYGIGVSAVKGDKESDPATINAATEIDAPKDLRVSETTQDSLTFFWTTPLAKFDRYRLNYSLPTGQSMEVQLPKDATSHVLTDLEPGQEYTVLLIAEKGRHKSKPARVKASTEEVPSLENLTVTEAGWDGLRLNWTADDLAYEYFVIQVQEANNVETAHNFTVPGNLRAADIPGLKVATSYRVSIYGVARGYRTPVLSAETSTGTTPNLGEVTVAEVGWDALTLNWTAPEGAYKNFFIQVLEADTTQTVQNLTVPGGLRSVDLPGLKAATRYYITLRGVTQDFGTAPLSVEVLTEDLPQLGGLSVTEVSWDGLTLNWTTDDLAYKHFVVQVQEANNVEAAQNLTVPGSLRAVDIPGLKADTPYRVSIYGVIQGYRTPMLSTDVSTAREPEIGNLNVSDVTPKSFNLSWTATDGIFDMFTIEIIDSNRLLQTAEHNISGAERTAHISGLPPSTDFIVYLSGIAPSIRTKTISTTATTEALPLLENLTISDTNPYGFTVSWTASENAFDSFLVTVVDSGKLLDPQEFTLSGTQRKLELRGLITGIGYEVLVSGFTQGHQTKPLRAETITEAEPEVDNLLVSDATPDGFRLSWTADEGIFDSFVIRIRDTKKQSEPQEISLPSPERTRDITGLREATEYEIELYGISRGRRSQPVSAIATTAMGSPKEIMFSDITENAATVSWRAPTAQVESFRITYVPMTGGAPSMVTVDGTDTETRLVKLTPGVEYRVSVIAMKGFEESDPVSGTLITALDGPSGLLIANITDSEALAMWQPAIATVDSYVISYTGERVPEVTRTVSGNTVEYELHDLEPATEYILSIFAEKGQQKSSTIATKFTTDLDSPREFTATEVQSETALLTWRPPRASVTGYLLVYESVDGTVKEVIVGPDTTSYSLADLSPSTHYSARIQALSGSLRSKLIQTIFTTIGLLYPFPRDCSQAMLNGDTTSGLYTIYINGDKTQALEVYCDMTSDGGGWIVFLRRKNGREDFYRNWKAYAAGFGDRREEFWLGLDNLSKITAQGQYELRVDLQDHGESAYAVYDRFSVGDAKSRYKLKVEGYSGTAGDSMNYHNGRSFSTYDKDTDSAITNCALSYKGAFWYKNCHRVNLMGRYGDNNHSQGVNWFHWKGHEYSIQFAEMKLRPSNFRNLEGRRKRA

B1: SPARC-related modular calcium-binding protein 1 (protein, UniProt Q8BLY1 26-463, looked up)
chain: HRTTGPRFLISDRDPPCNPHCPRTQPKPICASDGRSYESMCEYQRAKCRDPALAVVHRGRCKDAGQSKCRLERAQALEQAKKPQEAVFVPECGEDGSFTQVQCHTYTGYCWCVTPDGKPISGSSVQNKTPVCSGPVTDKPLSQGNSGRKVSFRFFLTLNSDDGSKPTPTMETQPVFDGDEITAPTLWIKHLVIKDSKLNNTNVRNSEKVHSCDQERQSALEEARQNPREGIVIPECAPGGLYKPVQCHQSTGYCWCVLVDTGRPLPGTSTRYVMPSCESDARAKSVEADDPFKDRELPGCPEGKKMEFITSLLDALTTDMVQAINSAAPTGGGRFSEPDPSHTLEERVAHWYFSQLDSNSSDDINKREMKPFKRYVKKKAKPKKCARRFTDYCDLNKDKVISLPELKGCLGVSKEGGSLGSFPQGKRAGTNPFIGRLV
B2: SPARC-related modular calcium-binding protein 2 (protein, UniProt Q8CD91 22-447, looked up)
chain: QKFSALTFLRVDQDKDRDCSLDCPSSPQKPLCASDGRTFLSRCEFQRAKCKDPQLEIAHRGNCKDVSRCVAERKYTQEQARKEFQQVFIPECNDDGTYSQVQCHSYTGYCWCVTPNGRPISGTAVAHKTPRCPGSINEKVPQREGAGKADDAAAPALETQPQGDEEDIASRYPTLWTEQVKSRQNKTNKNSASSCDQEHQSALEEAKQPKNDNVVIPECAHGGLYKPVQCHPSTGYCWCVLVDTGRPIPGTSTRYEQPKCDNTARAHPAKARDLYKNRPLQGCPGAKKHEFLTSVLDALSTDMVHAVSDPSSSSGRLSEPDPSHTLEERVVHWYFKLLDKNSSGDIGKKEIKPFKRFLRKKSKPKKCVKKFVEYCDMNNDKSITVQELMGCLGVTREEGKANTRKRHTPRGNAESSSSNRQPRKQG
B3: Spondin-1 (protein, UniProt Q8VCC9 29-807, looked up)
chain: FSDETLDKVTKSEGYCSRILRAQGTRREGYTEFSLRVEGDPDFYKPGSSYRVTLSAAPPSYFRGFTLIALKENQEGDKEEDHAGTFQIIDEEETQFMSNCPVAVTESTPRRRTRIQVFWIAPPTGTGCVILKASIVQKRIIYFQDEGSLTKKLCEQDPTLDGVTDRPILDCCACGTAKYRLTFYGNWSEKTHPKDYPRRANHWSAIIGGSHSKNYVLWEYGGYASEGVKQVAELGSPVKMEEEIRQQSDEVLTVIKAKAQWPAWQPVNVRAAPSAEFSVDRTRHLMSFLTMMGPSPDWNVGLSAEDLCTKECGWVQKVVQDLIPWDAGTDSGVTYESPNKPTIPQEKIRPLTSLDHPQSPFYDPEGGSITQVARVVIERIARKGEQCNIVPDNVDDIVADLAPEEKDEDDTPETCIYSNWSPWSACSSSTCEKGKRMRQRMLKAQLDLSVPCPDTQDFQPCMGPGCSDEDGSTCTMSEWITWSPCSVSCGMGMRSRERYVKQFPEDGSVCMLPTEETEKCTVNEECSPSSCLVTEWGEWDDCSATCGMGMKKRHRMVKMSPADGSMCKAETSQAEKCMMPECHTIPCLLSPWSEWSDCSVTCGKGMRTRQRMLKSLAELGDCNEDLEQAEKCMLPECPIDCELSEWSQWSECNKSCGKGHMIRTRTIQMEPQFGGVPCPETVQRKKCRTRKCLRSPSVQKLRWREARESRRSEQLREESDGEQFPGCRMRPWTAWSECTKLCGGGIQERYMTVKKRFKSSQFTSCKDKKEIRACNVHPC
B4: Sushi-repeat-containing protein SRPX (protein, UniProt Q9R0M3 31-464, looked up)
chain: FPGSGDSPLEDDGVWYSHSLYKDTPWCSPIKVKYGDVYCRAPPGGYYKTALGTRCDIRCRKGYELHGSSQLICQSNKRWSDKVICKQKRCPTLTMPANGGFKCVDGAYFNSRCEYYCSPGYTLKGERTVTCMDNKAWSGRPASCVDLEPPRIKCPSVKERIAEPNKLTVRVSWESPEGRDTADGILTDVILKGLPPGSNFPEGDHKIEYTVYDRAENKGTCKFRVKVRVRRCGKLNAPENGYMKCSSDGDNYGATCEFSCIGGYELQGSPARVCQSNLAWSGTEPSCAAMNVNVGVRTAAALLDQFYEKRRLLIVSTPTARNLLYRLQLGMLQQAQCGLDLRHVTVVELVGVFPTLIGRIRAKIMPPALALQLRLLLRIPLYSFSMVVVDKHGMDKERYVSLVTPMALFNLIDTFPLRKEEMILQAEMGQTCNV
B5: Transforming growth factor-beta-induced protein ig-h3 (protein, UniProt P82198 24-683, looked up)
chain: GPAKSPYQLVLQHSRLRGRQHGPNVCAVQKVIGTNKKYFTNCKQWYQRKICGKSTVISYECCPGYEKVPGEKGCPAALPLSNLYETMGVVGSTTTQLYTDRTEKLRPEMEGPGSFTIFAPSNEAWSSLPAEVLDSLVSNVNIELLNALRYHMVDRRVLTDELKHGMTLTSMYQNSNIQIHHYPNGIVTVNCARLLKADHHATNGVVHLIDKVISTITNNIQQIIEIEDTFETLRAAVAASGLNTVLEGDGQFTLLAPTNEAFEKIPAETLNRILGDPEALRDLLNNHILKSAMCAEAIVAGMSMETLGGTTLEVGCSGDKLTINGKAVISNKDILATNGVIHFIDELLIPDSAKTLLELAGESDVSTAIDILKQAGLDTHLSGKEQLTFLAPLNSVFKDGVPRIDAQMKTLLLNHMVKEQLASKYLYSGQTLDTLGGKKLRVFVYRNSLCIENSCIAAHDKRGRFGTLFTMDRMLTPPMGTVMDVLKGDNRFSMLVAAIQSAGLMEILNREGVYTVFAPTNEAFQAMPPEELNKLLANAKELTNILKYHIGDEILVSGGIGALVRLKSLQGDKLEVSSKNNVVSVNKEPVAETDIMATNGVVYAINTVLQPPANRPQERGDELADSALEIFKQASAYSRAAQRSVRLAPVYQRLLERMKH

molecular target: murine strep-tagged TNC (mTNC) (mouse) (UniProt Q80YX1); assay: co-purification with recombinant mTNC, 1 M NaCl eluate, mass spectrometry

**Q.** How did the binding turn out when B1 was run?
**A.** binds

**Q.** For B2, which binding is on record?
**A.** binds

**Q.** Which binding does the source give for B3 here?
**A.** binds

**Q.** How did the binding turn out when B4 was run?
**A.** binds

**Q.** How did the binding turn out when B5 was run?
**A.** binds

Results are given in words; binding and its absence hold for the method and conditions named. Binding seen in cells or lysates may run through a third protein. These calls come from enrichment with a bait or labelling near it, and not all partners need be listed.
